Test results published in PubChem BioAssay AID186 (DTP/NCI, 2004).
Shown are survivors of the treated group in tumour-free mice. Counts of survivors are from the toxicity check (mostly the fifth day) where no day follows; animals may have died later. Schedules are NCI's codes, read here as Q, the interval in days (D) or hours (H), X, the number of doses. Some doses were run more than once; the results are listed from low to high. Some schedule codes hold Z or #, which are not explained here.

Test system: B6D2F1 mice, nontumored toxicity test, survival
Experiment: NCI In Vivo Anticancer Drug Screen. Data for tumor model Nontumored Animals (Toxicity Test) in B6D2F1 (BDF1) mice
[1] = dose: 100.0 mg/kg/injection, schedule: Q01DX001 (ip), vehicle: saline

What does the source list for O=C(O)CN(CCN(CC(=O)O)CC(=O)O)CC(=O)O?
survivor count (dose: 50.0 mg/kg/injection, schedule: Q01DX001 (ip), vehicle: saline): 10 of 10 and 6 of 6; survivor count [1]: 10 of 10 and 6 of 6; survivor count (dose: 200.0 mg/kg/injection, schedule: Q01DX001 (ip), vehicle: saline): 10 of 10 and 6 of 6; survivor count (dose: 400.0 mg/kg/injection, schedule: Q01DX001 (ip), vehicle: saline): 10 of 10

Which survivor count (dose: 5.0 mg/kg/injection, schedule: Q04DX003 (sc), vehicle: other) does the source give for Cc1nc(N)nc(N)c1-c1ccc(Cl)c(Cl)c1 here?
The survivor count was 10 of 10.

What about the survivor count (dose: 10.0 mg/kg/injection, schedule: Q04DX002 (sc), vehicle: other) of the same compound?
The survivor count was 10 of 10.

And the survivor count (dose: 10.0 mg/kg/injection, schedule: Q04DX003 (sc), vehicle: other)?
The survivor count was 10 of 10.

And the survivor count (dose: 15.0 mg/kg/injection, schedule: Q04DX002 (sc), vehicle: other)?
The survivor count was 10 of 10.

What about the survivor count (dose: 15.0 mg/kg/injection, schedule: Q04DX003 (ip), vehicle: other) of the same compound?
Its survivor count is 10 of 10.

What about the survivor count (dose: 15.0 mg/kg/injection, schedule: Q04DX003 (sc), vehicle: other) of the same compound?
The survivor count was 10 of 10.

And the survivor count (dose: 20.0 mg/kg/injection, schedule: Q04DX002 (ip), vehicle: other)?
Its survivor count is 10 of 10.

And the survivor count (dose: 20.0 mg/kg/injection, schedule: Q04DX002 (sc), vehicle: other)?
Its survivor count is 9 of 9.

What about the survivor count (dose: 20.0 mg/kg/injection, schedule: Q04DX003 (ip), vehicle: other) of the same compound?
Its survivor count is 10 of 10.

And the survivor count (dose: 20.0 mg/kg/injection, schedule: Q04DX003 (sc), vehicle: other)?
The survivor count was 10 of 10.

What about the survivor count (dose: 25.0 mg/kg/injection, schedule: Q04DX002 (ip), vehicle: other) of the same compound?
Its survivor count is 10 of 10.

And the survivor count (dose: 25.0 mg/kg/injection, schedule: Q04DX002 (sc), vehicle: other)?
The survivor count was 10 of 10.

What about the survivor count (dose: 25.0 mg/kg/injection, schedule: Q04DX003 (ip), vehicle: other) of the same compound?
Its survivor count is 10 of 10.

And the survivor count (dose: 25.0 mg/kg/injection, schedule: Q04DX003 (sc), vehicle: other)?
Its survivor count is 10 of 10.

What about the survivor count (dose: 30.0 mg/kg/injection, schedule: Q04DX002 (ip), vehicle: other) of the same compound?
The survivor count was 10 of 10.

What about the survivor count (dose: 30.0 mg/kg/injection, schedule: Q04DX002 (sc), vehicle: other) of the same compound?
Its survivor count is 10 of 10.

What about the survivor count (dose: 30.0 mg/kg/injection, schedule: Q04DX003 (ip), vehicle: other) of the same compound?
Its survivor count is 10 of 10.

What about the survivor count (dose: 30.0 mg/kg/injection, schedule: Q04DX003 (sc), vehicle: other) of the same compound?
Its survivor count is 10 of 10.

And the survivor count (dose: 35.0 mg/kg/injection, schedule: Q04DX002 (ip), vehicle: other)?
Its survivor count is 10 of 10.

And the survivor count (dose: 35.0 mg/kg/injection, schedule: Q04DX002 (sc), vehicle: other)?
Its survivor count is 10 of 10.

With COC1=C2C[C@H](C)C[C@H](OC)[C@H](O)[C@@H](C)/C=C(\C)[C@H](OC(N)=O)[C@H](OC)/C=C\C=C(/C)C(=O)NC(=C(/C=N/N3CCN(C)CC3)C1=O)C2=O as the compound, how does the survivor count (dose: 1.0 mg/kg/injection, schedule: Q01DX001 (ip), vehicle: saline) read?
Its survivor count is 2 of 2.

What about the survivor count (dose: 10.0 mg/kg/injection, schedule: Q01DX001 (ip), vehicle: saline) of the same compound?
The survivor count was 2 of 2.

And the survivor count [1]?
Its survivor count is 2 of 2.

Which survivor count (dose: 48.0 mg/kg/injection, schedule: Q01DX005 (ip), vehicle: Klucel (hydroxypropylcellulose) (HPC)) does the source give for CN(C)/N=N/c1nc[nH]c1C(N)=O here?
Its survivor count is 4 of 4.

And the survivor count (dose: 60.0 mg/kg/injection, schedule: Q01DX009 (ip), vehicle: distilled water + Tween-80)?
Its survivor count is 5 of 5.

What about the survivor count (dose: 72.0 mg/kg/injection, schedule: Q01DX005 (ip), vehicle: Klucel (hydroxypropylcellulose) (HPC)) of the same compound?
Its survivor count is 4 of 4.

What about the survivor count (dose: 100.0 mg/kg/injection, schedule: Q01DX009 (ip), vehicle: distilled water + Tween-80) of the same compound?
Its survivor count is 5 of 5.

What about the survivor count (dose: 100.0 mg/kg/injection, schedule: Q04DX003 (ip), vehicle: saline with Tween-80) of the same compound?
The survivor count was 4 of 4.

What about the survivor count (dose: 108.0 mg/kg/injection, schedule: Q01DX005 (ip), vehicle: Klucel (hydroxypropylcellulose) (HPC)) of the same compound?
The survivor count was 4 of 4.

What about the survivor count (dose: 160.0 mg/kg/injection, schedule: Q01DX005 (ip), vehicle: Klucel (hydroxypropylcellulose) (HPC)) of the same compound?
The survivor count was 4 of 4.

What about the survivor count (dose: 167.0 mg/kg/injection, schedule: Q01DX009 (ip), vehicle: distilled water + Tween-80) of the same compound?
Its survivor count is 5 of 5.

What about the survivor count (dose: 240.0 mg/kg/injection, schedule: Q01DX005 (ip), vehicle: Klucel (hydroxypropylcellulose) (HPC)) of the same compound?
Its survivor count is 4 of 4.

What about the survivor count (dose: 278.0 mg/kg/injection, schedule: Q01DX009 (ip), vehicle: distilled water + Tween-80) of the same compound?
Its survivor count is 3 of 4.

What about the survivor count (dose: 400.0 mg/kg/injection, schedule: Q04DX003 (ip), vehicle: saline with Tween-80) of the same compound?
Its survivor count is 4 of 4.

What about the survivor count (dose: 800.0 mg/kg/injection, schedule: Q04DX003 (ip), vehicle: saline with Tween-80) of the same compound?
The survivor count was 0 of 2 and 4 of 4.

For O=c1[nH]c(=O)n(C2CC(O)C(CO)O2)cc1I (stereo unspecified), which survivor count (dose: 600.0 mg/kg/injection, schedule: Q## X002 (ip), vehicle: carboxymethylcellulose (CMC)) is on record?
The survivor count was 8 of 8.

What does the source list for COc1cc([C@@H]2c3cc4c(cc3[C@@H](OC3OC5COC(C)OC5C(O)C3O)[C@H]3COC(=O)[C@H]23)OCO4)cc(OC)c1O (stereo partly specified)?
survivor count (dose: 1.73 mg/kg/injection, schedule: Q01DX009 (ip), vehicle: clinical formulation): 5 of 5; survivor count (dose: 2.88 mg/kg/injection, schedule: Q01DX009 (ip), vehicle: clinical formulation): 5 of 5; survivor count (dose: 4.0 mg/kg/injection, schedule: Q01DX009 (oral), vehicle: Klucel (hydroxypropylcellulose) (HPC)): 8 of 8; survivor count (dose: 4.0 mg/kg/injection, schedule: Q03HX016 (oral), vehicle: Klucel (hydroxypropylcellulose) (HPC)): 8 of 8; survivor count (dose: 4.8 mg/kg/injection, schedule: Q01DX009 (ip), vehicle: clinical formulation): 5 of 5; survivor count (dose: 8.0 mg/kg/injection, schedule: Q01DX009 (ip), vehicle: clinical formulation): 5 of 5; survivor count (dose: 8.0 mg/kg/injection, schedule: Q01DX009 (oral), vehicle: Klucel (hydroxypropylcellulose) (HPC)): 8 of 8; survivor count (dose: 8.0 mg/kg/injection, schedule: Q03HX016 (oral), vehicle: Klucel (hydroxypropylcellulose) (HPC)): 8 of 8; survivor count (dose: 8.0 mg/kg/injection, schedule: Q04DX003 (ip), vehicle: saline): 4 of 4; survivor count (dose: 8.0 mg/kg/injection, schedule: Q04DX003 (ip), vehicle: suspension in saline): 4 of 4; survivor count (dose: 13.3 mg/kg/injection, schedule: Q01DX009 (ip), vehicle: clinical formulation): 5 of 5; survivor count (dose: 16.0 mg/kg/injection, schedule: Q01DX009 (oral), vehicle: Klucel (hydroxypropylcellulose) (HPC)): 8 of 8; survivor count (dose: 16.0 mg/kg/injection, schedule: Q03HX016 (oral), vehicle: Klucel (hydroxypropylcellulose) (HPC)): 7 of 8; survivor count (dose: 16.0 mg/kg/injection, schedule: Q04DX003 (ip), vehicle: saline): 4 of 4; survivor count (dose: 16.0 mg/kg/injection, schedule: Q04DX003 (ip), vehicle: suspension in saline): 4 of 4; survivor count (dose: 32.0 mg/kg/injection, schedule: Q01DX009 (oral), vehicle: Klucel (hydroxypropylcellulose) (HPC)): 8 of 8; survivor count (dose: 32.0 mg/kg/injection, schedule: Q03HX016 (oral), vehicle: Klucel (hydroxypropylcellulose) (HPC)): 8 of 8; survivor count (dose: 32.0 mg/kg/injection, schedule: Q04DX003 (ip), vehicle: saline): 2 of 3; survivor count (dose: 32.0 mg/kg/injection, schedule: Q04DX003 (ip), vehicle: suspension in saline): 4 of 4; survivor count (dose: 32.0 mg/kg/injection, schedule: Q04DX003 (oral), vehicle: Klucel (hydroxypropylcellulose) (HPC)): 8 of 8; survivor count (dose: 64.0 mg/kg/injection, schedule: Q01DX009 (oral), vehicle: Klucel (hydroxypropylcellulose) (HPC)): 8 of 8; survivor count (dose: 64.0 mg/kg/injection, schedule: Q03HX016 (oral), vehicle: Klucel (hydroxypropylcellulose) (HPC)): 8 of 8; survivor count (dose: 64.0 mg/kg/injection, schedule: Q04DX003 (ip), vehicle: saline): 4 of 4; survivor count (dose: 64.0 mg/kg/injection, schedule: Q04DX003 (ip), vehicle: suspension in saline): 2 of 3; survivor count (dose: 64.0 mg/kg/injection, schedule: Q04DX003 (oral), vehicle: Klucel (hydroxypropylcellulose) (HPC)): 8 of 8; survivor count (dose: 128.0 mg/kg/injection, schedule: Q01DX009 (oral), vehicle: Klucel (hydroxypropylcellulose) (HPC)): 7 of 8; survivor count (dose: 128.0 mg/kg/injection, schedule: Q03HX016 (oral), vehicle: Klucel (hydroxypropylcellulose) (HPC)): 8 of 8; survivor count (dose: 128.0 mg/kg/injection, schedule: Q04DX003 (oral), vehicle: Klucel (hydroxypropylcellulose) (HPC)): 8 of 8; survivor count (dose: 256.0 mg/kg/injection, schedule: Q04DX003 (oral), vehicle: Klucel (hydroxypropylcellulose) (HPC)): 8 of 8; survivor count (dose: 512.0 mg/kg/injection, schedule: Q04DX003 (oral), vehicle: Klucel (hydroxypropylcellulose) (HPC)): 8 of 8; survivor count (dose: 1024.0 mg/kg/injection, schedule: Q04DX003 (oral), vehicle: Klucel (hydroxypropylcellulose) (HPC)): 8 of 8
